Data as given in PubChem BioAssay AID1224826 (NIAID, 2016).
Shown is an unselected part of about 17,000 reagents tested. In the full data, about 1,110 (6.6%) were called active. 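Active means lowered or raised reporter signal; replicate intensities are raw and not normalised per plate.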 Entries without a mark were called inactive. Some reagents were tested in more than one well and are listed for each.

Screen: 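Regulators of Tlr4 signalling leading to Tnf-alpha expression in macrophages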 (primary screen)
Cells: RAW264.7 G9 macrophages from mouse bearing reporters for p65 (GFP) and the Tnf promoter (mCherry)
Knock-down reagent: siRNA pool against mouse genes, 100 nM
Timing: 16 h of LPS stimulation, after 2 days of siRNA transfection
Challenge: bacterial lipopolysaccharide (Salmonella minnesota R595), 10 ng/ml
Read-out: 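Imaged Tnf reporter mCherry in nuclei, minus background, normalised per plate to the median and expressed as robust z-scores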
Scale: Tnf reporter robust z-score: higher = stronger Tnf promoter reporter signal after LPS; Tnf reporter intensity: higher = stronger Tnf promoter reporter signal
Active means: 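a well counts as active at a score of -1.3 or below (Tlr4 knock-down control median) or above 3 (raised signal); controls and wells holding fewer than 50 cells are excluded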
Calls: active = Tnf reporter clearly lowered or raised; inactive = no clear change in Tnf reporter

gene | Tnf reporter robust z-score | fewer than 50 cells in well | Tnf reporter intensity, replicate 1 | Tnf reporter intensity, replicate 2
Ifi27 | -0.49 | enough cells in well | 143 | 159
Pecr | 0 | enough cells in well | 204 | 211
Cinp | -1.39 (active) | enough cells in well | 279 | 79.9
Cinp | – | fewer than 50 cells per well; well left out of calls | 169 | 79.8
Foxp3 | 0.16 | enough cells in well | 324 | 199
Cdyl | 0.82 | enough cells in well | 361 | 221
Mb | -0.17 | enough cells in well | 184 | 134
Il6st | -0.13 | enough cells in well | 215 | 153
Fundc1 | 2.09 | enough cells in well | 359 | 156
Dpf1 | -0.78 | enough cells in well | 178 | 72.1
Unkl | -0.53 | enough cells in well | 194 | 69
Snph | – | fewer than 50 cells per well; well left out of calls | 92.4 | 68.7
Dnaaf2 | 0.63 | enough cells in well | 330 | 90.4
Wdr5 | -1.38 (active) | enough cells in well | 176 | 91.2
Slc43a2 | -0.3 | enough cells in well | 40.2 | 146
Camk2b | 0.2 | enough cells in well | 181 | 192
Ighg3 | -0.66 | enough cells in well | 153 | 154
Olfm3 | 3.05 (active) | enough cells in well | 389 | 298
Il10rb | 0.06 | enough cells in well | 210 | 221
Ube2d2b | -0.16 | enough cells in well | 158 | 151
Ppa1 | 0.18 | enough cells in well | 309 | 230
Alyref | -1.79 (active) | enough cells in well | 44.5 | 38.9
Pdxp | 0.83 | enough cells in well | 327 | 218
Chst15 | – | fewer than 50 cells per well; well left out of calls | 132 | 60.2

Records listed so far whose gene name starts with F or f (2):
gene | Tnf reporter robust z-score | fewer than 50 cells in well | Tnf reporter intensity, replicate 1 | Tnf reporter intensity, replicate 2
Foxp3 | 0.16 | enough cells in well | 324 | 199
Fundc1 | 2.09 | enough cells in well | 359 | 156
